Among all 340,000 compounds or so, about 6,200 (1.8%) were called active. Inconclusive means that the source gave no clear call. Such entries were picked first, then a sample of the others. Calls come from the whole dose curve; as a rule, active = well fitted activation curve with a large enough effect; inconclusive = small, poorly fitted or top-dose-only effect; inactive = no such curve, though single readings can be large or run the other way. Potencies of inconclusive entries are doubtful fits and often do not repeat.
experiment: A quantitative high throughput screen for small molecules that induce DNA re-replication in SW480 colon adenocarcinoma cells.; note: nearly all actives have a fitted effect of over 55% in size; for re-replication activation: % of control where 0% means no effect; settings: Hoechst DNA content imaging, 48 h; re-replication activation: at 46.1 µM (top of the series) unless noted
Method in brief: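 DNA re-replication was detected as more nuclei of elevated Hoechst intensity after 48 hr exposure to compound (23 nL pinned per well of 250 cells).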
Potency is the fitted concentration of half-maximal effect.

Row | SMILES | re-replication activation | Potency
1 | COc1cccc(N2C(=O)C(c3ccccc3)=C(c3nc4ccccc4s3)C2NC(C)=O)c1 (centres undefined) | inactive: 9.06% | 
2 | CC(C)(C)c1ccc(S(=O)(=O)N2CCC(O)(c3ccc(Cl)cc3)CC2)cc1 | inactive: -29.3% | 
3 | O=C(NCCC1=CCCCC1)C(=O)NCC(c1ccco1)N1CCN(c2ccccc2)CC1 (centres undefined) |  | inconclusive: 18.4 µM [activator, single point]
4 | CC(=O)SC1CC(=O)N(c2ccc(C(C)(C)C)cc2)C1=O (centres undefined) |  | inconclusive: 29.1 µM [activator, single point]
5 | Cc1cc(O)ccc1NC(=S)NC(=O)c1cncc(Br)c1 | inactive: -0.0323% | 
6 | COCCCn1c(=N)c(C(=O)NCC2CCCO2)cc2c(=O)n3ccccc3nc21 (centres undefined) |  | active: 6.51 µM
7 | Fc1ccc(CNC(=S)NCc2ccc(F)cc2)cc1 | inactive: 16.4% | 
8 | COC(=O)c1ccc(/C=N/NC(=S)NC(C)C)cc1 |  | active: 16.4 µM
9 | OCCCc1cn(-c2ccccc2)c2ccccc12 |  | inconclusive: 32.6 µM [activator, partial curve, poor fit]
10 | CCCN(CCC)CCCNC(=O)c1cc2c(=O)[nH]c3ccccc3c2n1C |  | inconclusive: 18.4 µM [activator, single point]
11 | CC(C)Oc1ccc(NC(=O)Oc2ccccc2)cc1 |  | inconclusive: 29.1 µM [activator, single point]
12 | O=C(NCc1ccc(Cl)cc1)C1CCN(c2cnccn2)CC1 | inactive: -51.8% | 
13 | COc1cc(CC(=O)OCC(=O)c2c[nH]c3ccccc23)cc(OC)c1OC |  | inconclusive: 18.4 µM [activator, single point]
14 | CCN1CCN(c2cc(C)c3cc(NC(=O)CCC(=O)N4CCN(c5ccccc5OC)CC4)ccc3n2)CC1 |  | inconclusive: 18.4 µM [activator, single point]
15 | CCOC(=O)N1CCN(C(=O)c2ccc3c(c2)N=C(CC)c2cc(C)ccc2S3)CC1 | inactive: -16.2% | 
16 | COC(=O)c1c(NC(=O)COC(=O)[C@@H](NS(=O)(=O)c2ccc(C)cc2)C(C)C)sc2c1CCC2 | inactive: 0.354% | 
17 | COc1cccc(C(=O)Oc2c(Br)cc(Br)cc2/C=N/NC(=O)c2cc(C)[nH]n2)c1 | inactive: -2.17% | 
18 | COc1ccccc1OCC(=O)Nc1ccccc1C(=O)N1CCCC1 |  | inconclusive: 0.082 µM [activator, full curve]
19 | CCC(CC)C(=O)Nc1ccc(Nc2ccccc2)cc1 | inactive: 9.92% | 
20 | O=C(/C=C/c1ccccc1)C1=C(O)C(=O)N(CCO)C1c1ccccc1[N+](=O)[O-] (centres undefined) | inactive: 1.58% | 
21 | COc1ccc(N2CCN(S(=O)(=O)c3cc4c(cc3C)N(C(C)=O)CCO4)CC2)cc1 | inactive: -2.46% | 
22 | C/C(=N\NC(=O)CSCc1ccc([N+](=O)[O-])cc1)c1ccccc1O |  | inconclusive: 29.1 µM [activator, single point]
23 | Cc1ccc(CC(=O)NC2CCCc3ccccc32)cc1C (centres undefined) |  | inconclusive: 29.1 µM [activator, single point]

Part of the list above, as labelled records:
CC(C)Oc1ccc(NC(=O)Oc2ccccc2)cc1
  Potency: inconclusive: 29.1 µM [activator, single point]
O=C(NCc1ccc(Cl)cc1)C1CCN(c2cnccn2)CC1
  re-replication activation: inactive: -51.8%
COc1cc(CC(=O)OCC(=O)c2c[nH]c3ccccc23)cc(OC)c1OC
  Potency: inconclusive: 18.4 µM [activator, single point]

Next part:

Row | SMILES | re-replication activation | Potency
24 | O=C(N/N=C\c1cccc(Cl)c1)c1ccc(Cn2cc(Br)c([N+](=O)[O-])n2)o1 |  | inconclusive: 18.4 µM [activator, partial curve, poor fit]
25 | O=C(O)c1ccc(NC2=C/C(=N/S(=O)(=O)c3ccccc3)c3ccccc3C2=O)cc1 |  | active: 3.26 µM
26 | FC(F)(F)c1cc(-c2ccccc2)nc(NCc2cccnc2)n1 |  | inconclusive: 20.6 µM [activator, single point]
27 | COc1cc(/C=C(\C#N)C(=O)Nc2ccccc2F)ccc1OCCN1CCOCC1 |  | inconclusive: 10.3 µM [activator, partial curve, poor fit]
28 | COCC(C)n1c(SCC(=O)NC(=O)NCc2ccccc2)nc2ccccc2c1=O (centres undefined) |  | inconclusive: 32.6 µM [activator, partial curve, poor fit]
29 | Cc1cc(C)cc(C(=O)N(NC(=O)Nc2ccc(Cl)cc2)C(C)(C)C)c1 |  | inconclusive: 32.6 µM [activator, partial curve, poor fit]
30 | Cc1cccc2sc(NC(=O)C3c4ccccc4Oc4ccccc43)nc12 |  | inconclusive: 29.1 µM [activator, single point]
31 | COc1ccc(-c2cc(C(=O)NCCCn3ccnc3)c3ccccc3n2)c(OC)c1 | inactive: -1.84% | 
32 | CCOc1ccc(NC2OC(CO)C(O)C(O)C2O)c([N+](=O)[O-])c1 (centres undefined) |  | inconclusive: 29.1 µM [activator, single point]
33 | CCc1ccc(/C=N\NC(=O)c2ccc(Br)o2)s1 | inactive: 13.6% | 
34 | CC(C)(C)OC(=O)N1CCN(C(=O)Nc2ccc3c(c2)OCCO3)CC1 | inactive: 1.23% | 
35 | CC(=O)Nc1ccc(S(=O)(=O)NC2CC(=O)N(c3ccc4c(c3)OCCO4)C2)cc1 (centres undefined) |  | inconclusive: 0.366 µM [activator, full curve, poor fit]
36 | CNC(=O)c1cccc(NC(=O)c2ccccc2OCc2ccccc2)c1 | inactive: -5.36% | 
37 | Nc1cc(=O)[nH]c(=O)n1CCc1ccccc1 | inactive: -15.4% | 
38 | CCc1cccc(NC(=O)CN(C)S(=O)(=O)c2cccc3cccnc23)c1 |  | inconclusive: 29.1 µM [activator, single point]
39 | COCCn1c(C)cc(C(=O)COc2cccnc2[N+](=O)[O-])c1C |  | inconclusive: 29.1 µM [activator, single point]
40 | Cc1ccc(/C=C/c2nc3ccccc3[nH]2)o1 |  | inconclusive: 29.1 µM [activator, single point]
41 | CCN1CCN(CCC(=O)Nc2ccc(Br)c(C)c2)CC1 |  | inconclusive: 29.1 µM [activator, single point]
42 | COc1ccc(OC)c(C(=O)c2coc3ccc(OC(C)=O)cc23)c1 |  | inconclusive: 20.6 µM [activator, single point]
43 | C[C@H](NC(=O)c1ccco1)C(=O)Nc1cc(S(=O)(=O)N2CCCC2)ccc1OCC(F)(F)F |  | inconclusive: 3.66 µM [activator, single point]
44 | CSCCCNC(=S)N1CCN(S(=O)(=O)c2cccc(C(F)(F)F)c2)CC1 |  | inconclusive: 29.1 µM [activator, partial curve, poor fit]
45 | Cc1ccc2cc(NC(=O)CC(CC(=O)O)c3ccccc3)ccc2n1 (centres undefined) |  | inconclusive: 3.66 µM [activator, partial curve, poor fit]
46 | FC(F)C(F)(F)C(F)(F)C(F)(F)c1cc(-c2ccccc2)n[nH]1 |  | inconclusive: 16.4 µM [activator, single point]

Part of the list above, as a markdown table.

| Row | SMILES | re-replication activation | Potency |
| --- | --- | --- | --- |
| 32 | CCOc1ccc(NC2OC(CO)C(O)C(O)C2O)c([N+](=O)[O-])c1 (centres undefined) |  | inconclusive: 29.1 µM [activator, single point] |
| 33 | CCc1ccc(/C=N\NC(=O)c2ccc(Br)o2)s1 | inactive: 13.6% |  |

(list continues)

Row | SMILES | re-replication activation | Potency
47 | Cc1cc(C)c2sc(N(CCCN(C)C)C(=O)COc3ccc(Cl)cc3)nc2c1 |  | inconclusive: 18.4 µM [activator, single point]
48 | COC(=O)[C@@H](NC(=O)Nc1ccc(S(N)(=O)=O)cc1)C(C)C |  | inconclusive: 29.1 µM [activator, partial curve, poor fit]
49 | CCOc1ccc(N2CC(C(=O)NCc3nnnn3-c3ccc(C)c(C)c3)CC2=O)cc1 (centres undefined) |  | inconclusive: 11.6 µM [activator, partial curve, poor fit]
50 | CCC(=O)c1ccc(OCC(=O)O)cc1 |  | inconclusive: 23.1 µM [activator, partial curve, poor fit]
51 | Cc1[nH]c2ccc(C(=O)N3CCN(c4cccc(Cl)c4)CC3)cc2c1C |  | inconclusive: 29.1 µM [activator, single point]
52 | Cc1nn(Cc2ccccc2Cl)c2sc(C(=O)NCCCn3ccnc3)cc12 | inactive: 0.33% | 
53 | Cc1ccc(S(=O)(=O)CCC(=O)Nc2nnc(-c3cccs3)o2)cc1 |  | inconclusive: 23.1 µM [activator, single point]
54 | COc1ccc(C2CC(c3cccs3)=NN2c2ccccc2)cc1 (centres undefined) |  | inconclusive: 1.03 µM [activator, full curve, poor fit]
55 | COc1ccc2c(c1OC)C(=O)OC2Nc1nc(-c2cccc([N+](=O)[O-])c2)cs1 (centres undefined) | inactive: -0.126% | 
56 | Cc1ccccc1CCNC(=O)Cn1nc(C)c2c(C)n(-c3ccccc3)nc2c1=O |  | inconclusive: 29.1 µM [activator, single point]
57 | COc1ccc(S(=O)(=O)NCCc2c[nH]c3ccc(Cl)cc23)cc1 |  | inconclusive: 29.1 µM [activator, single point]
58 | CC1CC(C)CN(C(=O)C2CCN(S(=O)(=O)c3cccs3)CC2)C1 (centres undefined) |  | inconclusive: 2.91 µM [activator, single point]
59 | COc1ccc(C(=O)Nc2ncc3c(n2)-c2ccccc2CC3)cc1 | inactive: 12.9% | 
60 | CN1C(=O)N2CN(C3CCCCC3)CN3C(=O)N(C)C1C23 (centres undefined) |  | inconclusive: 16.4 µM [activator, single point]
61 | CCn1c(C)c(C)c2cc(C(=O)N3CCc4ccccc4C3)ccc21 |  | inconclusive: 29.1 µM [activator, single point]
62 | Cc1ccc(S(=O)(=O)NCCC(=O)NCCCSc2ccccc2)cc1 |  | inconclusive: 6.51 µM [activator, single point]
63 | Cc1ccc(-c2nc(=S)c3c(n2Cc2ccco2)CC(C)(C)OC3)cc1 |  | inconclusive: 23.1 µM [activator, single point]
64 | COCCn1c(SCC(=O)c2ccc(Cl)cc2)nnc1C(C)C |  | inconclusive: 29.1 µM [activator, single point]
65 | Cc1ccc(S(=O)(=O)N(C)CC(=O)NCCCn2nc(C)cc2C)cc1 |  | inconclusive: 18.4 µM [activator, single point]
66 | CN(C)/N=C/c1ccc(/C=N/NC(N)=S)o1 | inactive: -6.06% | 
67 | Cc1cc(C)n(C(C)CC(=O)N2CCc3ccccc32)n1 (centres undefined) | inconclusive: 60.1% [activator] | 
68 | CCOc1ccc(OCCC(=O)N2CCN(S(=O)(=O)c3ccc(OCC)cc3)CC2)cc1 | inactive: 7.54% | 
69 | CCCCNCC1C(Oc2ccc(Cl)cc2)C(=O)N1c1ccccc1C (centres undefined) |  | inconclusive: 29.1 µM [activator, single point]

— PubChem BioAssay AID624297 (National Center for Advancing Translational Sciences (NCATS), 2012)
